No constants are given. Whether binding was seen depends on the method and setting. Binding seen in cells or lysates may run through a third protein. Some results given as binding are weak or reduced against the parent protein; the word gives no strength. Where a sequence is shown, tags or fusion partners need not be part of it.
Biological target: T1, Flag-tagged ALK2 (UniProt Q04771)
T1 sequence: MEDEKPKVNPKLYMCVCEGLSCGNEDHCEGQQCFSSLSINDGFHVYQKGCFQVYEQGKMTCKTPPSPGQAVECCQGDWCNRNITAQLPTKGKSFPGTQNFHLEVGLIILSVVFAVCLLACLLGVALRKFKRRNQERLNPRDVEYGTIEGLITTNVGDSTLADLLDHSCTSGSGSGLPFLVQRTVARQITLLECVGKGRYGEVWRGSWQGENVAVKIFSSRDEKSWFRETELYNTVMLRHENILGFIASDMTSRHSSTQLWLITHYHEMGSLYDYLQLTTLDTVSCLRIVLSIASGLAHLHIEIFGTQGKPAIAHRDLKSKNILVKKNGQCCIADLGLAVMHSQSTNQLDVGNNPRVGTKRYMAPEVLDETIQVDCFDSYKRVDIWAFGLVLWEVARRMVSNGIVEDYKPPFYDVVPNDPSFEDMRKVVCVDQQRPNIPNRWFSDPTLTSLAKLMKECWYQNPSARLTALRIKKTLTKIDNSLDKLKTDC
Assay: cross-linking + co-IP; HepG2 cells expressing Flag-ALK2, HA-ALK4 or 6Myc-ActRIIA; cross-linked with BS3 (cell-impermeable); lysates immunoprecipitated with anti-Flag antibody, Western blot with anti-Flag, anti-HA or anti-Myc; also with activin B treatment (slowly migrating bands tended to decrease)

B1: HA-tagged ALK4 (receptor, UniProt P36896 24-505)
chain: SGPRGVQALLCACTSCLQANYTCETDGACMVSIFNLDGMEHHVRTCIPKVELVPAGKPFYCLSSEDLRNTHCCYTDYCNRIDLRVPSGHLKEPEHPSMWGPVELVGIIAGPVFLLFLIIIIVFLVINYHQRVYHNRQRLDMEDPSCEMCLSKDKTLQDLVYDLSTSGSGSGLPLFVQRTVARTIVLQEIIGKGRFGEVWRGRWRGGDVAVKIFSSREERSWFREAEIYQTVMLRHENILGFIAADNKDNGTWTQLWLVSDYHEHGSLFDYLNRYTVTIEGMIKLALSAASGLAHLHMEIVGTQGKPGIAHRDLKSKNILVKKNGMCAIADLGLAVRHDAVTDTIDIAPNQRVGTKRYMAPEVLDETINMKHFDSFKCADIYALGLVYWEIARRCNSGGVHEEYQLPYYDLVPSDPSIEEMRKVVCDQKLRPNIPNWWQSYEALRVMGKMMRECWYANGAARLTALRIKKTLSQLSVQEDVKI
  binding: binds

Source: article PMC5138601
